Measurements: patent publication EP1736154A1 (priority 2005, dated 2006)
These are yes or no findings as the source states them, for the method shown. In cells and extracts the contact can be indirect. Some results given as binding are weak or reduced against the parent protein; the word gives no strength. Tags and fused reporters may be left off the sequences shown.

Molecular target: T1, endogenous tra2-beta1 (UniProt P62995)
T1 sequence (looked up): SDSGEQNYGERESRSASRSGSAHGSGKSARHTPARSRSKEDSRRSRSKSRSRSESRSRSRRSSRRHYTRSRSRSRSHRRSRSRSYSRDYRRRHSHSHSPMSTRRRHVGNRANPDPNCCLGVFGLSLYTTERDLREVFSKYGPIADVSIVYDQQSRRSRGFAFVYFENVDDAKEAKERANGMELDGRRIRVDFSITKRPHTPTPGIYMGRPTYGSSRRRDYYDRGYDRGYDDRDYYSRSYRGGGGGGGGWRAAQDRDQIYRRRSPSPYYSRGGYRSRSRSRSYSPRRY
Assay: co-immunoprecipitation (anti-GFP), reblot with anti tra2-beta1 (Figure 1C)

binding: binds
B1: EGFP-tra2-beta1 (protein, UniProt P62995 1-288, looked up, not shown: large carriers)
chain: MSDSGEQNYGERESRSASRSGSAHGSGKSARHTPARSRSKEDSRRSRSKSRSRSESRSRSRRSSRRHYTRSRSRSRSHRRSRSRSYSRDYRRRHSHSHSPMSTRRRHVGNRANPDPNCCLGVFGLSLYTTERDLREVFSKYGPIADVSIVYDQQSRRSRGFAFVYFENVDDAKEAKERANGMELDGRRIRVDFSITKRPHTPTPGIYMGRPTYGSSRRRDYYDRGYDRGYDDRDYYSRSYRGGGGGGGGWRAAQDRDQIYRRRSPSPYYSRGGYRSRSRSRSYSPRRY
